Data set [1] in a line: RP, Waters ACQUITY UPLC BEH C18, 100 × 1 mm, 1.7 µm, 50 °C, 0.3 mL/min, estimated dead time 0.17 min; A: water + 0.1% formic acid + 20 mM ammonium formate; B: methanol + 0.1% formic acid + 20 mM ammonium formate; gradient (min/%B) 0/0 15/100 21/100 22/0 30/0. The settings on record: stereoisomer not certain.
Data set [2] can be described thus: RP, Waters ACQUITY UPLC BEH C18, 100 × 1 mm, 1.7 µm, 50 °C, 0.3 mL/min, estimated dead time 0.17 min; A: water + 10 mM ammonium bicarbonate; B: 10% water + 90% methanol + 10 mM ammonium bicarbonate; gradient (min/%B) 0/0 15/100 21/100 22/0 30/0. The settings on record: stereoisomer not certain.

For `CC(C)(C)c1ccc(O)cc1` [4-tert-Butylphenol], the LC retention time in data set [1] was 10.8 min; in data set [2], 14.4 min.

These data come from the RepoRT retention time repository (doi:10.1021/acs.analchem.1c00972).
